Measured values taken from article PMC11862611, “Simple accessible clemastine fumarate analogues as effective antileishmanials” (RSC Medicinal Chemistry, 2025).
Where a name gives a salt, the structure may show the parent alone.

Tests used:
[1] = system: L. amazonensis promastigotes; conditions: read-out: L. amaz promastigote EC50; ref Mina et al.1; cited from earlier work
[2] = system: L. major ΔLCB2 promastigotes; assay type: cell-based, Leishmania major; conditions: EC50 WT versus ΔLCB2 L. major promastigotes
[3] = system: L. amazonensis GFP promastigotes; assay: mouse model of L. amazonensis infection (ear, IL dosing); conditions: 1.2 mg kg^−1 IL twice a week for 4 weeks
Procedure: Consequently, we used IL dosing for this experiment. To enable direct comparison with CF, the same treatment regimen (dose of 1.2 mg kg^−1via IL injection twice a week for 4 weeks starting on DPI) was used for both compounds.
A Weight variation of mice during 28 days of treatment. B Progression of lesion thickness over 28 day treatment period. C Representative photographs of the infected ear for each group taken after completion of treatment, D parasite burden was evaluated by LDA on 36 days post infection. […]
In vivo assays were conducted as previously reported 1. Two month old BALB/c female mice, weighing 20 - 25 g and of approximately the same age were used for the study. For infection of mice, stationary phase GFP L. amazonensis promastigotes were collected, washed and suspended in sterile PBS. A volume of 10 μl of sterile PBS containing 2 x 10^6 parasites was injected into the right ear. […]
(§1) Infected ear thicknesses were measured once or twice a week with a caliper gauge, and the lesion sizes were expressed as the difference between the thickness of infected and non-infected ear. On day 41 animals were sacrificed and the fluorescence measured (485 - 528 nm) and parasite load quantified using a limiting dilution assay (LDA).
(§2) Data on lesion progression were analysed for statistical significance by using the Dunnett test as part of the one-way ANOVA (GraphPad Prism 8 software). […]

[4] = system: bone marrow derived macrophages (BMDM); conditions: read-out: BMDM CC50; ref Mina et al.1; cited from earlier work
[5] = molecular target: T1, LmjIPCS (Leishmania major, UniProt E9AFX2); assay: HPTLC based LmjIPCS assay; assay type: biochemical; conditions: microsomes treated with 5 mM compound; NBD-C6-ceramide and PI
T1 construct: made in house
Description: CF was originally selected from a screen for inhibitors of the sphingolipid synthase, (L. majIPCS) and to verify that this new analogue retained this profile we applied the same assays as used before. […] To support inhibition of the IPCS, the HPTLC biochemical assay described by Mina et al.[16] was employed. In this, using a microsomal preparation of the L. majIPCS, a fluorescent substrate NBD-C6-ceramide was combined with PI and the two drugs. Following the reaction, the product, NBD-C6-IPC, and residual starting material were separated via HPTLC and analysed by fluorescence spectroscopy.
°C and 5% CO2. Aliquots of resazurin solution (10 μL) were then added and the cells were incubated at 37 °C and 5% CO2 for 4 h. Cell-viability measurement was carried out using a fluorescence plate reader. […]
as §1, with “days. Infected” for “Infected”
as §2
Product quantification was carried out using a fluorescence plate reader

[6] = system: L. major promastigotes (FV1) WT; conditions: read-out: L. major promastigote EC50; ref Mina et al.1; cited from earlier work
[7] = molecular target: T2, L. majIPCS (Leishmania major, UniProt E9AFX2); conditions: ref Mina et al.1, cited from earlier work
T2 sequence (E9AFX2 1-338): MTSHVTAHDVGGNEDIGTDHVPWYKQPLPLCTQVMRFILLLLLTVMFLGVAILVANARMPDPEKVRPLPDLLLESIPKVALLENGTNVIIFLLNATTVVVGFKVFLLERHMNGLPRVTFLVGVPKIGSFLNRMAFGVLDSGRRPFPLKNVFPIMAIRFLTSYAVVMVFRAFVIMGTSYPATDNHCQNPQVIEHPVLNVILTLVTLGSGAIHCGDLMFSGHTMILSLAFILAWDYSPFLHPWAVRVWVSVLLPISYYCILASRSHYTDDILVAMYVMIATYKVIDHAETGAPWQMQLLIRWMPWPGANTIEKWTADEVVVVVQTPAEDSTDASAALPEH

CN1CCC[C@@H]1CCO[C@](C)(c1ccccc1)c1ccc(Cl)cc1 [1a, clemastine fumarate]
EC50 [1]: 27 nM | times more active against WT than mutant ΔLCB2 promastigotes [2]: approximately 3 times | weight variation of mice during treatment [3]: small weight loss | CC50 [4]: 19100 nM | NBD-C6-IPC product formation (HPTLC) [5]: No product was observed | EC50 [6]: 179 nM | LmjIPCS inhibition % at 20 µM ± SD ([7]; 20 µM): 82.6 ± 9.3% | IC50 ([7]; read-out: LmjIPCS IC50): 2870 nM
